# According to patent publication US9517222B2, “Method for the treatment of senile dementia of the Alzheimer's type” (Phenomenome Discoveries Inc., priority 2007, dated 2016):
# Tests used:
# [1] = Serum ethanolamine phospholipid levels in human cohorts (dementia severity, post-mortem pathology, age) by flow-injection MS/MS
# [2] = Serum ethanolamine phospholipid ratios to PtdEt 16:0/18:0 (M01) in human cohorts
# [3] = serum, females, post mortem SDAT
# [4] = serum, females, post mortem control
structure (smiles),measurement,setting,value
"CCCCC/C=C\C/C=C\C/C=C\C/C=C\CCCC(=O)OC(COCCCCCCCCCCCCCCCCCC)COP(=O)(O)OCCN (centres unmarked) [Metabolite M12, Plasmanyl 18:0/20:4]",Ratio of serum levels,"[1]; AD, All to CN, Male",0.793
same,Ratio of serum levels,"[1]; ADAS 5-19 to CN, Male",0.831
same,Ratio of serum levels,"[1]; ADAS 20-39 to 5-19, Male",0.942
same,Ratio of serum levels,"[1]; ADAS 20-39 to CN, Male",0.783
same,Ratio of serum levels,"[1]; ADAS 40-70 to 5-19, Male",0.826
same,Ratio of serum levels,"[1]; ADAS 40-70 to 20-39, Male",0.877
same,Ratio of serum levels,"[1]; ADAS 40-70 to CN, Male",0.686
same,"Serum level, Mean","[1]; Cognitive Normal, Female",0.196
same,"Average serum level, Mean","[1]; Cognitive Normal, Male",0.205
same,"Serum level, Mean","[1]; Post Mortem Ctl, Male",0.094
same,"Serum level, Mean",[1]; Post Mortem SDAT Male,0.084
same,Ratio of serum levels,"[1]; Post mortem SDAT vs Control, Male",0.587
same,"Serum level, Mean","[1]; SDAT, ADAS 5-19, Female",0.166
same,"Average serum level, Mean","[1]; SDAT, ADAS 5-19, Male",0.170
same,"Serum level, Mean","[1]; SDAT, ADAS 20-39, Female",0.152
same,"Average serum level, Mean","[1]; SDAT, ADAS 20-39, Male",0.160
same,"Serum level, Mean","[1]; SDAT, ADAS 40-70, Female",0.142
same,"Average serum level, Mean","[1]; SDAT, ADAS 40-70, Male",0.141
same,"Serum level, Mean","[1]; SDAT_all, Female",0.153
same,"Average serum level, Mean","[1]; SDAT_all, Male",0.162
same,"Ratio, ADAS 5-19 to CN, Female","[1]; serum level ratio, females, ADAS 5-19 vs CN",0.847
same,"Ratio, ADAS 20-39 to 5-19, Female","[1]; serum level ratio, females, ADAS 20-39 vs ADAS 5-19",0.917
same,"Ratio, ADAS 20-39 to CN, Female","[1]; serum level ratio, females, ADAS 20-39 vs CN",0.776
same,"Ratio, ADAS 40-70 to 5-19, Female","[1]; serum level ratio, females, ADAS 40-70 vs ADAS 5-19",0.858
same,"Ratio, ADAS 40-70 to 20-39, Female","[1]; serum level ratio, females, ADAS 40-70 vs ADAS 20-39",0.935
same,"Ratio, ADAS 40-70 to CN, Female","[1]; serum level ratio, females, ADAS 40-70 vs CN",0.726
same,"Ratio, 50-59 vs. 40-49, Female","[1]; serum level ratio, females, age 50-59 vs 40-49",0.862
same,"Ratio, 60-69 vs. 40-49, Female","[1]; serum level ratio, females, age 60-69 vs 40-49",0.815
same,"Ratio, 70+ vs. 40-49, Female","[1]; serum level ratio, females, age 70+ vs 40-49",0.848
same,"Ratio, AD, All to CN, Female","[1]; serum level ratio, females, all AD vs cognitively normal",0.778
same,"Ratio, Autopsy AD vs. Control, Female","[1]; serum level ratio, females, autopsy AD vs control",0.742
same,"Ratio, 50-59 vs. 40-49, Male","[1]; serum level ratio, males, age 50-59 vs 40-49",1.128
same,"Ratio, 60-69 vs. 40-49, Male","[1]; serum level ratio, males, age 60-69 vs 40-49",1.147
same,"Ratio, 70+ vs. 40-49, Male","[1]; serum level ratio, males, age 70+ vs 40-49",1.085
same,"Mean serum level, Age Ctl, 30-39, Female","[1]; serum, females, age 30-39",0.196
same,"Mean serum level, Age Ctl, 40-49, Female","[1]; serum, females, age 40-49",0.222
same,"Mean serum level, Age Ctl, 50-59, Female","[1]; serum, females, age 50-59",0.191
same,"Mean serum level, Age Ctl, 60-69, Female","[1]; serum, females, age 60-69",0.181
same,"Mean serum level, Age Ctl, 70+, Female","[1]; serum, females, age 70+",0.188
same,"Mean serum level, Post Mortem SDAT, Female",[1]; [3],0.055
same,"Mean serum level, Post Mortem Ctl, Female",[1]; [4],0.114
same,"Mean serum level, Age Ctl, 30-39, Male","[1]; serum, males, age 30-39",0.244
same,"Mean serum level, Age Ctl, 40-49, Male","[1]; serum, males, age 40-49",0.186
same,"Mean serum level, Age Ctl, 50-59, Male","[1]; serum, males, age 50-59",0.210
same,"Mean serum level, Age Ctl, 60-69, Male","[1]; serum, males, age 60-69",0.213
same,"Mean serum level, Age Ctl, 70+, Male","[1]; serum, males, age 70+",0.202
same,Ratio of ethanolamine phospholipid ratios to M01 between cohorts,"[2]; AD, All to CN, Male",0.759
same,Ratio of ethanolamine phospholipid ratios to M01 between cohorts,"[2]; ADAS 5-19 to CN, Male",0.792
same,Ratio of ethanolamine phospholipid ratios to M01 between cohorts,"[2]; ADAS 20-39 to CN, Male",0.763
same,Ratio of ethanolamine phospholipid ratios to M01 between cohorts,"[2]; ADAS 40-70 to CN, Male",0.679
same,"Average serum ethanolamine phospholipid ratio to M01, Mean","[2]; Cognitive Normal, Male, serum",1.843
same,"Average serum ethanolamine phospholipid ratio to M01, Mean","[2]; SDAT, ADAS 5-19, Male, serum",1.460
same,"Average serum ethanolamine phospholipid ratio to M01, Mean","[2]; SDAT, ADAS 20-39, Male, serum",1.406
same,"Average serum ethanolamine phospholipid ratio to M01, Mean","[2]; SDAT, ADAS 40-70, Male, serum",1.252
same,"Average serum ethanolamine phospholipid ratio to M01, Mean","[2]; SDAT_all, Male, serum",1.399
same,"Ethanolamine Phospholipid Ratio to M01, Mean, Age Ctl, 30-39, Female","[2]; human serum, females aged 30-39",1.979
same,"Ethanolamine Phospholipid Ratio to M01, Mean, Age Ctl, 40-49, Female","[2]; human serum, females aged 40-49",2.044
same,"Ethanolamine Phospholipid Ratio to M01, Mean, Age Ctl, 50-59, Female","[2]; human serum, females aged 50-59",1.952
same,"Ratio of Ethanolamine Phospholipid Ratio to M01, 50-59 vs. 40-49, Female","[2]; human serum, females aged 50-59 vs. females aged 40-49",0.955
same,"Ethanolamine Phospholipid Ratio to M01, Mean, Age Ctl, 60-69, Female","[2]; human serum, females aged 60-69",1.534
same,"Ratio of Ethanolamine Phospholipid Ratio to M01, 60-69 vs. 40-49, Female","[2]; human serum, females aged 60-69 vs. females aged 40-49",0.751
same,"Ethanolamine Phospholipid Ratio to M01, Mean, Age Ctl, 70+_Female","[2]; human serum, females aged 70+",1.564
same,"Ratio of Ethanolamine Phospholipid Ratio to M01, 70+ vs. 40-49, Female","[2]; human serum, females aged 70+ vs. females aged 40-49",0.765
same,"Ratio of Ethanolamine Phospholipid Ratio to M01, 50-59 vs. 40-49, Male","[2]; human serum, males aged 50-59 vs. males aged 40-49",1.124
same,"Ratio of Ethanolamine Phospholipid Ratio to M01, 60-69 vs. 40-49, Male","[2]; human serum, males aged 60-69 vs. males aged 40-49",0.963
same,"Ratio of Ethanolamine Phospholipid Ratio to M01, 70+ vs. 40-49, Male","[2]; human serum, males aged 70+ vs. males aged 40-49",0.898
same,"Ratio of ethanolamine phospholipid ratio to M01, ADAS 5-19 to CN, Female","[2]; serum, females, ADAS 5-19 vs cognitive normal",0.932
same,"Ratio of ethanolamine phospholipid ratio to M01, ADAS 20-39 to 5-19, Female","[2]; serum, females, ADAS 20-39 vs ADAS 5-19",0.883
same,"Ratio of ethanolamine phospholipid ratio to M01, ADAS 20-39 to CN, Female","[2]; serum, females, ADAS 20-39 vs cognitive normal",0.823
same,"Ratio of ethanolamine phospholipid ratio to M01, ADAS 40-70 to 5-19, Female","[2]; serum, females, ADAS 40-70 vs ADAS 5-19",0.790
same,"Ratio of ethanolamine phospholipid ratio to M01, ADAS 40-70 to 20-39, Female","[2]; serum, females, ADAS 40-70 vs ADAS 20-39",0.895
same,"Ratio of ethanolamine phospholipid ratio to M01, ADAS 40-70 to CN, Female","[2]; serum, females, ADAS 40-70 vs cognitive normal",0.736
same,"Ethanolamine phospholipid ratio to M01, Mean, SDAT, ADAS 5-19, Female","[2]; serum, females, SDAT ADAS 5-19",1.568
same,"Ethanolamine phospholipid ratio to M01, Mean, SDAT, ADAS 20-39, Female","[2]; serum, females, SDAT ADAS 20-39",1.384
same,"Ethanolamine phospholipid ratio to M01, Mean, SDAT, ADAS 40-70, Female","[2]; serum, females, SDAT ADAS 40-70",1.239
same,"Ratio of ethanolamine phospholipid ratio to M01, AD, All to CN, Female","[2]; serum, females, all AD vs cognitive normal",0.823
same,"Ethanolamine phospholipid ratio to M01, Mean, SDAT_all Female","[2]; serum, females, all SDAT",1.384
same,"Ratio of ethanolamine phospholipid ratio to M01, Autopsy AD vs. Control, Female","[2]; serum, females, autopsy AD vs post mortem control",0.957
same,"Ethanolamine phospholipid ratio to M01, Mean, Cognitive Normal, Female","[2]; serum, females, cognitive normal",1.682
same,"Ethanolamine phospholipid ratio to M01, Mean, Post Mortem SDAT Female",[2]; [3],0.699
same,"Ethanolamine phospholipid ratio to M01, Mean, Post Mortem Ctl, Female",[2]; [4],0.731
same,"Ratio of ethanolamine phospholipid ratio to M01, ADAS 20-39 to 5-19, Male","[2]; serum, males, SDAT ADAS 20-39 vs ADAS 5-19",0.964
same,"Ratio of ethanolamine phospholipid ratio to M01, ADAS 40-70 to 5-19, Male","[2]; serum, males, SDAT ADAS 40-70 vs ADAS 5-19",0.858
same,"Ratio of ethanolamine phospholipid ratio to M01, ADAS 40-70 to 20-39, Male","[2]; serum, males, SDAT ADAS 40-70 vs ADAS 20-39",0.890
same,"Ethanolamine phospholipid ratio to M01, Mean, Age Ctl, 30-39, Male","[2]; serum, males, age control 30-39",2.068
same,"Ethanolamine phospholipid ratio to M01, Mean, Age Ctl, 40-49, Male","[2]; serum, males, age control 40-49",1.728
same,"Ethanolamine phospholipid ratio to M01, Mean, Age Ctl, 50-59, Male","[2]; serum, males, age control 50-59",1.942
same,"Ethanolamine phospholipid ratio to M01, Mean, Age Ctl, 60-69, Male","[2]; serum, males, age control 60-69",1.664
same,"Ethanolamine phospholipid ratio to M01, Mean, Age Ctl, 70+_Male","[2]; serum, males, age control 70+",1.552
same,"Ethanolamine phospholipid ratio to M01, Mean, Post Mortem SDAT Male","[2]; serum, males, post mortem SDAT",0.616
same,"Ratio of ethanolamine phospholipid ratio to M01, SDAT vs Control (post mortem, males)","[2]; serum, males, post mortem SDAT vs post mortem control",0.753
same,"Ethanolamine phospholipid ratio to M01, Mean, Post Mortem Ctl, Male","[2]; serum, males, post mortem control",0.819

# A unit is not stated for every read-out.
